Results are given in words; binding and its absence hold for the method and conditions named. In cells and extracts the contact can be indirect. Some binding calls cover weakened binding; strength is not graded here.
Tests used:
[1] = target: WDR77 (human (endogenous in MCF-10A-ER-Src)) (UniProt Q9BQA1); test: co-IP; endogenous proteins; chromatin fraction of transformed (tamoxifen) and non-transformed (ethanol) cells; antibodies against β-catenin, WDR77 and MafB; IgG as control
[2] = target: ß-catenin (human (endogenous in MCF-10A-ER-Src)) (UniProt P35222); test: as above
[3] = target: recombinant β-catenin (UniProt P35222); test: co-IP; histidine-tagged recombinant proteins generated in E. coli (pET plasmids, BL21), analysed by co-IP
[4] = target: MafB (human (endogenous in MCF-10A-ER-Src)) (UniProt Q9Y5Q3); test: co-IP; endogenous proteins; chromatin fraction of transformed (tamoxifen) and non-transformed (ethanol) cells; antibodies against β-catenin, WDR77 and MafB; IgG as control

Amino acid sequences for entries named in this document (tags omitted).
UniProt Q9BQA1: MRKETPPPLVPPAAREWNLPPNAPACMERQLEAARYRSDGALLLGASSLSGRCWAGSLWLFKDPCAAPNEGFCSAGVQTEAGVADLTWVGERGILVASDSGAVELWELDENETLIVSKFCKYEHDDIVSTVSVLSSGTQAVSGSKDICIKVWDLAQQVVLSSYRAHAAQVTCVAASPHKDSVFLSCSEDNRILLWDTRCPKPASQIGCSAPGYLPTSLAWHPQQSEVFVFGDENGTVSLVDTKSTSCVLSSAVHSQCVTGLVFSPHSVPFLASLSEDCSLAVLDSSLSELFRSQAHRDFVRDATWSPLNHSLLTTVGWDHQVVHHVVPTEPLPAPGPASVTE
UniProt P35222: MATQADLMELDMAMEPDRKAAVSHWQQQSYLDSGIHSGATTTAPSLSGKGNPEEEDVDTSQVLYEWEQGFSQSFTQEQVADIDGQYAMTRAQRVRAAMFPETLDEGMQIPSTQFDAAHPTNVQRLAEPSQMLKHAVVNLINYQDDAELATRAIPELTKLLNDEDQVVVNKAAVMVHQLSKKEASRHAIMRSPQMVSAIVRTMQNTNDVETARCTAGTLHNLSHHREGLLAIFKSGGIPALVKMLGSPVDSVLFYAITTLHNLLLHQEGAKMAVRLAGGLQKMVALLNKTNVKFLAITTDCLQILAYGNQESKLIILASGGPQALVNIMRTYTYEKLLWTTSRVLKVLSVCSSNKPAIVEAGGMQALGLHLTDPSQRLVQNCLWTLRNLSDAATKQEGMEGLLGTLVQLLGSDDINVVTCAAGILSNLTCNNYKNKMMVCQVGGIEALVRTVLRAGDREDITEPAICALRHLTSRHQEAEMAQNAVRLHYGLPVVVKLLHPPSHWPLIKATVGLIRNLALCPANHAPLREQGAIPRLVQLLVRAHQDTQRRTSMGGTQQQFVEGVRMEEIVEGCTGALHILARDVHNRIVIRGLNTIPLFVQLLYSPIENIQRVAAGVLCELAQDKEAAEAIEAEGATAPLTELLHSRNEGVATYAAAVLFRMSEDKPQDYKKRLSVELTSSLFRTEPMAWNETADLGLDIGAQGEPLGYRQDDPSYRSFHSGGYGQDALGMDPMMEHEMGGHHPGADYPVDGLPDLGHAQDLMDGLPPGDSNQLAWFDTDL
UniProt Q9Y5Q3: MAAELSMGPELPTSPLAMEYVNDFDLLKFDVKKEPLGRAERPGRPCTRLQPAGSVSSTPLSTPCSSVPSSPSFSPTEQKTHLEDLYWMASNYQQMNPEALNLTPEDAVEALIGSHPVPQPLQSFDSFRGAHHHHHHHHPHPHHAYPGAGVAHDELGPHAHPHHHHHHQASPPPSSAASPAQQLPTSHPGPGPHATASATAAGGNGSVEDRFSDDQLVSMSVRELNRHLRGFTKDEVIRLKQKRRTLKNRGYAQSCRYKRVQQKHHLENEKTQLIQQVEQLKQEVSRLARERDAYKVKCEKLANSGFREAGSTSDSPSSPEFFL

Substance | binding [1] | binding [2] | binding [3] | binding [4]
MafB (from UniProt Q9Y5Q3 1-323) | binds | binds |  | 
WDR77 (from UniProt Q9BQA1 1-342) |  | binds |  | binds

Continued, values first:

binding [1] | binding [2] | binding [3] | binding [4] | Substance
 |  | binds |  | recombinant WDR77 (from UniProt Q9BQA1 1-342)
 |  | binds |  | recombinant MafB (from UniProt Q9Y5Q3 1-323)
binds |  |  | binds | ß-catenin (from UniProt P35222 1-781)

From publication PMC9049301
